Reference: paper PMC10177021
No constants are given. Whether binding was seen depends on the method and setting. Binding seen in cells or lysates may run through a third protein. Some results given as binding are weak or reduced against the parent protein; the word gives no strength. For some assays here: Sequences can lack the tags named with a protein.

Sequences of proteins named here, by UniProt entry; tags and fusion partners are left off.
UniProt Q6WVG3: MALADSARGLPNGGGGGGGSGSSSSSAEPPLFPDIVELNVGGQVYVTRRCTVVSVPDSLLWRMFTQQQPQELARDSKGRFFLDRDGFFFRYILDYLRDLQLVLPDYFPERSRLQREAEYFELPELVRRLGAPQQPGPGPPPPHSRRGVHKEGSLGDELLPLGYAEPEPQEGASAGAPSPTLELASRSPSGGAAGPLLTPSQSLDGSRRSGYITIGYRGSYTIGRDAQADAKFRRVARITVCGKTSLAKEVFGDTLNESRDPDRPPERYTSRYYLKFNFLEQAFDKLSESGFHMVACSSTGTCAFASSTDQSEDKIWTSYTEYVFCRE

Experiments:
[1] = target: mouse KCTD12, recombinant in HEK293 cells (mouse) (UniProt Q6WVG3); assay: co-IP; KCTD12 immunoprecipitated with a guinea pig polyclonal anti-KCTD12 antibody from whole cell lysates of HEK293 cells stably expressing KCTD12 and transiently transfected with mGlu1α or GABAB2-YFP (mock-transfected as control); immunoblot
[2] = target: mouse KCTD12, recombinant in HEK293 cells (mouse), Q6WVG3; assay: as above; details: remark: other sources report otherwise

| Binder | binding [1] | binding [2] |
| --- | --- | --- |
| mouse GABAB2-YFP (receptor, UniProt Q80T41 41-940) WARGAPRPPPSSPPLSIMGLMPLTKEVAKGSIGRGVLPAVELAIEQIRNESLLRPYFLDLRLYDTECDNAKGLKAFYDAIKYGPNHLMVFGGVCPSVTSIIAESLQGWNLVQLSFAATTPVLADKKKYPYFFRTVPSDNAVNPAILKLLKHFRWRRVGTLTQDVQRFSEVRNDLTGVLYGEDIEISDTESFSNDPCTSVKKLKGNDVRIILGQFDQNMAAKVFCCAFEESMFGSKYQWIIPGWYEPAWWEQVHVEANSSRCLRRSLLAAMEGYIGVDFEPLSSKQIKTISGKTPQQYEREYNSKRSGVGPSKFHGYAYDGIWVIAKTLQRAMETLHASSRHQRIQDFNYTDHTLGRIILNAMNETNFFGVTGQVVFRNGERMGTIKFTQFQDSREVKVGEYNAVADTLEIINDTIRFQGSEPPKDKTIILEQLRKISLPLYSILSALTILGMIMASAFLFFNIKNRNQKLIKMSSPYMNNLIILGGMLSYASIFLFGLDGSFVSEKTFETLCTVRTWILTVGYTTAFGAMFAKTWRVHAIFKNVKMKKKIIKDQKLLVIVGGMLLIDLCILICWQAVDPLRRTVERYSMEPDPAGRDISIRPLLEHCENTHMTIWLGIVYAYKGLLMLFGCFLAWETRNVSIPALNDSKYIGMSVYNVGIMCIIGAAVSFLTRDQPNVQFCIVALVIIFCSTITLCLVFVPKLITLRTNPDAATQNRRFQFTQNQKKEDSKTSTSVTSVNQASTSRLEGLQSENHRLRMKITELDKDLEEVTMQLQDTPEKTTYIKQNHYQELNDILSLGNFTESTDGGKAILKNHLDQNPQLQWNTTEPSRTCKDPIEDINSPEHIQRRLSLQLPILHHAYLPSIGGVDASCVSPCVSPTASPRHRHVPPSFRVMVSGL | binds | – |
| mouse mGlu1α, recombinant in HEK293 cells, P97772 21-1199 (receptor) RMPDRKVLLAGASSQRSVARMDGDVIIGALFSVHHQPPAEKVPERKCGEIREQYGIQRVEAMFHTLDKINADPVLLPNITLGSEIRDSCWHSSVALEQSIEFIRDSLISIRDEKDGLNRCLPDGQTLPPGRTKKPIAGVIGPGSSSVAIQVQNLLQLFDIPQIAYSATSIDLSDKTLYKYFLRVVPSDTLQARAMLDIVKRYNWTYVSAVHTEGNYGESGMDAFKELAAQEGLCIAHSDKIYSNAGEKSFDRLLRKLRERLPKARVVVCFCEGMTVRGLLSAMRRLGVVGEFSLIGSDGWADRDEVIEGYEVEANGGITIKLQSPEVRSFDDYFLKLRLDTNTRNPWFPEFWQHRFQCRLPGHLLENPNFKKVCTGNESLEENYVQDSKMGFVINAIYAMAHGLQNMHHALCPGYVGLCDAMKPIDGRKLLDFLIKSSFVGVSGEEVWFDEKGDAPGRYDIMNLQYTEANRYDYVHVGTWHEGVLNIDDYKIQMNKSGMVRSVCSEPCLKGQIKVIRKGEVSCCWICTACKENEFVQDEFTCRACDLGWWPNAELTGCEPITIRYLEWSDIESIIAIAFSCLGILVTLFVTLIFVLYRDTPVVKSSSRELCYIILAGIFLGYVCPFTLIAKPTTTSCYLQRLLVGLSSAMCYSALVTKTNRIARILAGSKKKICTRKPRFMSAWAQVIIASILISVQLTLVVTLIIMEPPMPILSYPSIKEVYLICNTSNLGVVAPVGYNGLLIMSCTYYAFKTRNVPANFNEAKYIAFTMYTTCIIWLAFVPIYFGSNYKIITTCFAVSLSVTVALGCMFTPKMYIIIAKPERNVRSAFTTSDVVRMHVGDGKLPCRSNTFLNIFRRKKPGAGNANSNGKSVSWSEPGGRQAPKGQHVWQRLSVHVKTNETACNQTAVIKPLTKSYQGSGKSLTFSDASTKTLYNVEEEDNTPSTHFSPPSSPSMVVHRRGPPVATTPPLPPHLSAEETPLFLADSVIPKGLPPPLPQQQQQPPPQPPPQQPKSLMDQLQGVVTNFGSGIPDFHAVLAGPGTPGNGLRSLYPPPPPPQHLQMLPLQLSTFREEPISPPGEDDDDDSSERFKLLQEFVYEREGNTEEDDLEEEEDLPAASKLTPEDSPALTPPSPFRDSVASGSSVPSSPVSESVLCTPPNVTYASVILRDYKQSSSTL | – | no binding |
